Paper PMC7145593
Read-outs that look alike come from different tables or passages of the source. No constants are given. Whether binding was seen depends on the method and setting. In cells and extracts the contact can be indirect. These calls come from enrichment with a bait or labelling near it, and not all partners need be listed. For part of these data: A no says only that the protein was not detected with the bait. For part of these data: Sequences can lack the tags named with a protein.

Sequences of proteins named here, by UniProt entry; tags and fusion partners are left off.
UniProt Q8I581: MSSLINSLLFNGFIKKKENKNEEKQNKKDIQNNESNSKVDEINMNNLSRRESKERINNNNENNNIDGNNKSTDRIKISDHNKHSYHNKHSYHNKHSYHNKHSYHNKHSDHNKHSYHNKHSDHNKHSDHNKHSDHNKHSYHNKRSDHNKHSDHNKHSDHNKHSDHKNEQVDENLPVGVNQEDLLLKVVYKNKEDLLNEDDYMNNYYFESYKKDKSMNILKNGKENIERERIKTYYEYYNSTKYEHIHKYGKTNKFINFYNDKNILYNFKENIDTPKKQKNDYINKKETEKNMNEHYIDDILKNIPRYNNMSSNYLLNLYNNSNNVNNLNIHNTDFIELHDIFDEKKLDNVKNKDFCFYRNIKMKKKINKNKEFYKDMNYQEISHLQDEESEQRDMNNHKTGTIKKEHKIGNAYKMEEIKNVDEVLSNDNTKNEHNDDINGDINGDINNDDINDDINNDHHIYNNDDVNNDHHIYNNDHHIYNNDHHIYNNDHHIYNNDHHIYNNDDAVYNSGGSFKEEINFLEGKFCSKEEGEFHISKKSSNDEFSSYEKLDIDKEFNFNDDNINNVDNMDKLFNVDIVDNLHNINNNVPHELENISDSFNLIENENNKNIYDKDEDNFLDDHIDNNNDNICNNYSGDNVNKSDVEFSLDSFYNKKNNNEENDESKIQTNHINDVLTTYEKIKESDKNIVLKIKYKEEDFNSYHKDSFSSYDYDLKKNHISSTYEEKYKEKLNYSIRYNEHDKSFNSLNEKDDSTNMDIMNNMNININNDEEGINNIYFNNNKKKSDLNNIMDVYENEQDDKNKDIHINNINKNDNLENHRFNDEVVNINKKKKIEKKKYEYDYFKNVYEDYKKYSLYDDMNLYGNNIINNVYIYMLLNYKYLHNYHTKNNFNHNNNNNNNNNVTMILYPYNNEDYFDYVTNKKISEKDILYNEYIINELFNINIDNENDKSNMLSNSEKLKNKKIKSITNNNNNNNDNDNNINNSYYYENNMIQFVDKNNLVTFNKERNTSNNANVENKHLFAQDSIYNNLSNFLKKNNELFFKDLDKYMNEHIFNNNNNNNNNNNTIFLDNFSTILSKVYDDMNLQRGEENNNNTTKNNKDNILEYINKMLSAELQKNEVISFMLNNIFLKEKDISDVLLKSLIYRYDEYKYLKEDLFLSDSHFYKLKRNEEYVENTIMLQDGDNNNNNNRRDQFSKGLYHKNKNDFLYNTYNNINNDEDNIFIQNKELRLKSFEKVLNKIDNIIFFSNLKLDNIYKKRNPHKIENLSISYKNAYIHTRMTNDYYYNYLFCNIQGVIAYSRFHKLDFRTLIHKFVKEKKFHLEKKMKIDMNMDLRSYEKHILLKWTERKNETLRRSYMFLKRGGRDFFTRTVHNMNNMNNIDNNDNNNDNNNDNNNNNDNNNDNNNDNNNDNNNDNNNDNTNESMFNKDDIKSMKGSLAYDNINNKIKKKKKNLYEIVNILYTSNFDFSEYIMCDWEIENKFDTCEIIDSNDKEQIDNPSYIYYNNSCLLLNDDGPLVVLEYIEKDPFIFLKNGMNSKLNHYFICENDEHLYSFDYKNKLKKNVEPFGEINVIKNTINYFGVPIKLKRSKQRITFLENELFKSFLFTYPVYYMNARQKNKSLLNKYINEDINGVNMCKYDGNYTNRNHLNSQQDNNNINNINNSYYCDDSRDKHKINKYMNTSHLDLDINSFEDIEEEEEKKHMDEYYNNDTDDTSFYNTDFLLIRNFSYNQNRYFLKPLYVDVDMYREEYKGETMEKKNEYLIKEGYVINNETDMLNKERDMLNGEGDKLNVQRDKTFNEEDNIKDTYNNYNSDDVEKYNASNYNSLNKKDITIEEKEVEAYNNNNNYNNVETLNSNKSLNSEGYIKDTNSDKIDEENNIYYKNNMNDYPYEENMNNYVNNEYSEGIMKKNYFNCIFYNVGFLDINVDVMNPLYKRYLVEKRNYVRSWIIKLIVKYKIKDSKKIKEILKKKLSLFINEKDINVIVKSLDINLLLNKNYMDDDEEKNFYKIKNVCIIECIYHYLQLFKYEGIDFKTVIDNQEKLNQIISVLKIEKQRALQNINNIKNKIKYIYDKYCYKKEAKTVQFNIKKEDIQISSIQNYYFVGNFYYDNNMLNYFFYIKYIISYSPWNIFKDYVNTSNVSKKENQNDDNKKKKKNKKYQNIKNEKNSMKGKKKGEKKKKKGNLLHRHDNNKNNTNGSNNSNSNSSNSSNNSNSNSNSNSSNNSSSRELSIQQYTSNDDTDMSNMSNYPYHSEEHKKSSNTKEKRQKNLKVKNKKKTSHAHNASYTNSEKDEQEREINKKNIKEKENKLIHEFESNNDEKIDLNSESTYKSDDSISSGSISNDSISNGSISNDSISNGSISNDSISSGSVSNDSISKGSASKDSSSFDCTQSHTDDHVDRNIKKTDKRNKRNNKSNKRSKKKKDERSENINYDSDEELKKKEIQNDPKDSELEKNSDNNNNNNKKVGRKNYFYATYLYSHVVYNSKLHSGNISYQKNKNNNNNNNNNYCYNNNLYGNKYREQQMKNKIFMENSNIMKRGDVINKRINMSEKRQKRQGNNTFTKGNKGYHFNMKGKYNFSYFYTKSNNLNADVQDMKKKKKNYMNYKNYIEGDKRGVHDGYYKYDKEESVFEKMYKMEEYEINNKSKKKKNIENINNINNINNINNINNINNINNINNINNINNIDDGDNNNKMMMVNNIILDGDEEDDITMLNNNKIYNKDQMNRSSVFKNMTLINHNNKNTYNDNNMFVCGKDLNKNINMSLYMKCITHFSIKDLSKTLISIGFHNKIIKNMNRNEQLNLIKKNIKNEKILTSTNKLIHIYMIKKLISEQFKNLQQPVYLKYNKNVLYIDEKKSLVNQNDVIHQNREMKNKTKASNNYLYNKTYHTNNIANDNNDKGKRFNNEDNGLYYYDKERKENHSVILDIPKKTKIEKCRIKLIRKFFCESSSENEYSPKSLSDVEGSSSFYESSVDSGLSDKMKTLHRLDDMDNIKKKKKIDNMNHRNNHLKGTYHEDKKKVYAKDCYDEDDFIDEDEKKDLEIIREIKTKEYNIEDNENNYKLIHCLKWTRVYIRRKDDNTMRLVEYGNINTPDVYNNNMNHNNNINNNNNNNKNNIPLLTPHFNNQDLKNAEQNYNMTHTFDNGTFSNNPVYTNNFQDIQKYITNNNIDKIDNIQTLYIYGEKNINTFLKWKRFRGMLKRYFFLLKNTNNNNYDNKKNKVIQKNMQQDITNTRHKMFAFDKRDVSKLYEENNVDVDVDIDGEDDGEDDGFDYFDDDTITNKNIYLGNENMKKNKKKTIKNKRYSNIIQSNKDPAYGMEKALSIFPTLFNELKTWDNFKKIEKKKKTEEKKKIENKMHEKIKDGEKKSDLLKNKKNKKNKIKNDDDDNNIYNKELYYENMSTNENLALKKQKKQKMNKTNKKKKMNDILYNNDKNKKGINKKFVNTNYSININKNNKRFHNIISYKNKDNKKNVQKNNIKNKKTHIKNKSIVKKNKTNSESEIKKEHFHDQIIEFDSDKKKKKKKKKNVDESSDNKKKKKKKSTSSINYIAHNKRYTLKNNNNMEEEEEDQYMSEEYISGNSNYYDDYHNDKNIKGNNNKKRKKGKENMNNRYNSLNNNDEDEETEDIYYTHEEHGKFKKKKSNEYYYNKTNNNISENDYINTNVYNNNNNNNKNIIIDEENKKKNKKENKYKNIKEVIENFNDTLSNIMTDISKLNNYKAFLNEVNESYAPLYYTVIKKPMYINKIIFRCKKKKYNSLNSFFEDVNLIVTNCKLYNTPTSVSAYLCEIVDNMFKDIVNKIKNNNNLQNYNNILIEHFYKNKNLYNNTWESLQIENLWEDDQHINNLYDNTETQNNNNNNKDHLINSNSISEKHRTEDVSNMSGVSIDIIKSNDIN
UniProt Q8IB67: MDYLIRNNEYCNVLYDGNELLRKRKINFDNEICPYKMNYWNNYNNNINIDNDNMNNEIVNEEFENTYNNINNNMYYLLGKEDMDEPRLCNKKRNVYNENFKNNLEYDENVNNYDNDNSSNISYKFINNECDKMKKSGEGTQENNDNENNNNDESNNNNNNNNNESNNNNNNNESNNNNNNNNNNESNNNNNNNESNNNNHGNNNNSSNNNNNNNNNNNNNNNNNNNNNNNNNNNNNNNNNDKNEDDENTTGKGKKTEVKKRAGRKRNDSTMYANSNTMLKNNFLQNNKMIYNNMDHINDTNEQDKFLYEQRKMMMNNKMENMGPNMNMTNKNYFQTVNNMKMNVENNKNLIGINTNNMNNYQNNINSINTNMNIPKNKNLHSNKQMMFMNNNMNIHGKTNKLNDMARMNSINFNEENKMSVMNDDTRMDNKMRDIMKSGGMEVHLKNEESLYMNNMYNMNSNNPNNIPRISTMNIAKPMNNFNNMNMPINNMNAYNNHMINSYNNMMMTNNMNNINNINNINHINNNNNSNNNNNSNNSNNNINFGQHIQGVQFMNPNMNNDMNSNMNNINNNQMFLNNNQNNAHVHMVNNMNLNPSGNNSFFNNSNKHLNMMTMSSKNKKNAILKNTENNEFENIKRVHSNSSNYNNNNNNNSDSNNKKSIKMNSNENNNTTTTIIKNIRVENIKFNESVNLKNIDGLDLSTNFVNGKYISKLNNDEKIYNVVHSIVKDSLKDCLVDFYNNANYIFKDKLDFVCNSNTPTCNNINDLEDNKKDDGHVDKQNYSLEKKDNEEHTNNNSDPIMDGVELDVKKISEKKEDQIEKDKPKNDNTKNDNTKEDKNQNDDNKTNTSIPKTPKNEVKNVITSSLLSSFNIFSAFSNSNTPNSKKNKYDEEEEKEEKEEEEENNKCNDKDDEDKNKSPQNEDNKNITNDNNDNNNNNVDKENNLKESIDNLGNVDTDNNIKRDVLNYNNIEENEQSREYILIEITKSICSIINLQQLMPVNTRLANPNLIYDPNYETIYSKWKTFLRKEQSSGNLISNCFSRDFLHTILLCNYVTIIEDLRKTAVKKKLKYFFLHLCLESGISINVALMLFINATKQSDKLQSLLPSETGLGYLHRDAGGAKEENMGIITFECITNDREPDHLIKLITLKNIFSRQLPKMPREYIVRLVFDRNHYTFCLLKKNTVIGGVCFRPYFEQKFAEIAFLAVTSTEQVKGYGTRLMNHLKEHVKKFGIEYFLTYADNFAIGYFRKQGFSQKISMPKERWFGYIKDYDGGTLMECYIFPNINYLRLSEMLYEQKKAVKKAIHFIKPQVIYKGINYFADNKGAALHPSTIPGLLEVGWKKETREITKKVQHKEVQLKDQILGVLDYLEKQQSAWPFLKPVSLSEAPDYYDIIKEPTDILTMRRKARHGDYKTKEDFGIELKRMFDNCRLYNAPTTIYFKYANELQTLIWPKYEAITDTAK

Columns and labels:
Assay in all cases: affinity purification with mass spectrometry; GFP-Trap or HA-antibody bead pulldown against control beads from nuclear extract of parasite lines with the bait endogenously tagged; dimethyl labelling, label swap; FDR < 10% in at least two reactions
[1] = biological target: T1, endogenously GFP-tagged BDP4 (P. falciparum (endogenous in 3D7 parasites)) (UniProt Q8IK82)
T1 sequence: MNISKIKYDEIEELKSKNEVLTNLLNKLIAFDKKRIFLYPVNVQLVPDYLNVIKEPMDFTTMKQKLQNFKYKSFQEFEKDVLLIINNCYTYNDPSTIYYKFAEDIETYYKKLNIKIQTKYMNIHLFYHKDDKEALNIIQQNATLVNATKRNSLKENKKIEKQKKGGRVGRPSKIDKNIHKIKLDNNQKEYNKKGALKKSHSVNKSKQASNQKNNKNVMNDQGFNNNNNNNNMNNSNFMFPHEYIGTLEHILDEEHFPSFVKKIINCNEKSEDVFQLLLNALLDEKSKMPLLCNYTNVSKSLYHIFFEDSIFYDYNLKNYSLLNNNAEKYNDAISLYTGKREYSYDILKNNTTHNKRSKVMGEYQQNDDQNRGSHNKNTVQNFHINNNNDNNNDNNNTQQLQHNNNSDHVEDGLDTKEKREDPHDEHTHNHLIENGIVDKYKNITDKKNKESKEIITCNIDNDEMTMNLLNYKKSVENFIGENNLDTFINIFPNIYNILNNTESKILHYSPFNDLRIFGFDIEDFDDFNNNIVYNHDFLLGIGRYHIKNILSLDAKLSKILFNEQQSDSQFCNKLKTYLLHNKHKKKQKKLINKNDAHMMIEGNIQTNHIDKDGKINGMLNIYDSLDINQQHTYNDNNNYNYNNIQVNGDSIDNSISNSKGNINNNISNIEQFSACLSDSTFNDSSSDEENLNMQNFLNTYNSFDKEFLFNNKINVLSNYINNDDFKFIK

[2] = biological target: 3xHA-tagged PHD1 expressed from the endogenous locus (P. falciparum (endogenous in 3D7 parasites)) (UniProt Q8IJW2)
[3] = biological target: TAF1/BDP5-AID-GFP (P. falciparum (endogenous in 3D7 parasites)) (UniProt Q8I581)
[4] = biological target: endogenous PHD2 with a C-terminal GFP-tag (P. falciparum (endogenous in 3D7 parasites)) (UniProt Q8ILC9)
[5] = biological target: GFP-tagged GCN5 expressed from the endogenous locus (P. falciparum (endogenous in 3D7 parasites)) (UniProt Q8IB67)
[6] = biological target: TAF1/BDP5-AID-GFP (P. falciparum (endogenous in 3D7 parasites)) (UniProt Q8I581); remark: listed apart in the source
[7] = biological target: T1, endogenously GFP-tagged BDP4 (P. falciparum (endogenous in 3D7 parasites)); remark: listed apart in the source
[8] = biological target: T2, endogenously GFP-tagged BDP1 (P. falciparum (endogenous in 3D7 parasites)) (UniProt Q8IJ72)
T2 sequence: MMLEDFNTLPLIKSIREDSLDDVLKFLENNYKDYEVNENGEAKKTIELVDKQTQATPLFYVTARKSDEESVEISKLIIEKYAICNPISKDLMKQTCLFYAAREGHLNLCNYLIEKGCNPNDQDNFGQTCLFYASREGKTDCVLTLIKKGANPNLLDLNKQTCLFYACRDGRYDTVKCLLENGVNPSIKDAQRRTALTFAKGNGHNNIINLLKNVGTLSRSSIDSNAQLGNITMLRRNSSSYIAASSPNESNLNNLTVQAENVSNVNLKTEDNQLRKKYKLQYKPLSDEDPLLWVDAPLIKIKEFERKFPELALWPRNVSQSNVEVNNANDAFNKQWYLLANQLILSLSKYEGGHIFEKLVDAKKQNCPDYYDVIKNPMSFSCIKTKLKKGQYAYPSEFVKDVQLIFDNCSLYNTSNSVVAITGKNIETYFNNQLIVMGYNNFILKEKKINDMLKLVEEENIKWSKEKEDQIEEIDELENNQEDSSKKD

CHD1 (from UniProt Q8IJG6 1-3328)
binding [1]: binds

ADA2 (from UniProt Q8IJP9)
binding [2]: binds

PF3D7_1128000
binding [1]: binds

SWIB
binding [1]: binds

PF3D7_1361200 (from UniProt Q8ID94)
binding [3]: binds

transcription factor AP2-I (from UniProt Q8IJW6 1-1597)
binding [1]: binds

WD-repeat protein PF3D7_1138800 (from UniProt Q8IHX6 1-1920)
binding [3]: binds

HMDB3
binding [1]: binds

PhD-finger protein PHD1 (from UniProt Q8IJW2 1-3853)
binding [4]: binds weakly
binding [5]: binds

BDP3 (from UniProt Q8I240 1-2285)
binding [3]: binds

PhD-finger containing protein PHD2 (from UniProt Q8ILC9 1-5757)
binding [5]: binds

protein with unknown function PF3D7_1402800 (from UniProt Q8IM62 1-1511)
binding [4]: no binding
binding [2]: binds

GCN5 (from UniProt Q8IB67 1-1465)
binding [2]: binds

B1: bromodomain protein 2 (protein, UniProt Q8I5S4 1-1088)
chain: MNDYNNINNQLLIDTSSGMEHITIENNNNCIINNIDNIDYNNKTTNHIIKNNDSIISYKNNNMSSINNLIDIDNNGTSINNEFQQKNYNNNNIISDNKNMNYFSSFSNENTIDDNGNDTNYMNYDDNMNNSEYTNNHNNNHNNNHNNINSNDHNDDNLKNNNQCNSMNITDEYMSDNNISKNNSTSNILEYHINDNNNNNNINFIKKEEIIKNMDDLFIKNVNDIRSFERGILNLTQEEFIYISNKIHFLGFRFIEIPCVKTKNEKRNTYTAISKRHLNEIKNLSCSLSNSIYDAGKRKSKKTFDPFYSKAEFDSKGTYAQHDQKDTKDTNKKKAQTNNNVNNNNNNDYVNEKDIKNANIKEESHNLNSTKGNNKGTNNTYHNNNSIKSQQESDKLTSTSKGVKRSASNKFDDFDNKHNNKNVHGGSTNLGTNNSTPTHNNSNTGKGKGSKNTNSNNKKINEKESMKKRQKTNSYNEDNLMDEYEQHKKTYKKKIYRTKNPWKNYCFKILHKLKKKEIACWFLKPVNPELDGIPNYFNVIKNPMDFETIENKLINNKYNNPFEWQHDVRQIFFNAFTYHKVKNCVWNDAYKLAKEFDKLIKQGNDVKNILKDCTKNINSVYFNMKQYNDLIEHTNNTNNIINHNNISKTITNTSSDDHSGSLSSSSSSSSSISSSNYDDEAYDNVSSVNYNKRDSQMHKNVHGKKSSMYMTSASTNTLKNNLNSNQIYFPHGKNKKNEKMNKSSKYSINNNNNNNNISNKKNIRDNIKNKKDVNSNTLDDDDFEPPNVGTIPEPPGIQKIGINDKGLNNYQVNLLFKNFKRLAPNQRKAALEIIQDDLGILAENHMFDRFFTFDTDLLSIEKQKRIFLYINHMGRINLEHYKSSLISANKVNNSSFSKGKMGQKIVHNKSFIKHGSNNSNINAHYEKRRTNRYVSSSSNSSDSSTSNSSDSSSFSTSSDDSDSDSDSDMDSDSYDKKRKIKRPFPNDKKKELSNKFLEANRRKTLPQYKPVNENRKSLQIRDDVMGMHADFLGSMDSPRNTKNKHRASVSAWPEWKGQVIQQAILTQHKTNVPINKKELIAEGYDAKI
binding [6]: binds
binding [7]: binds
binding [8]: binds

B2: PF3D7_1225200 (protein, UniProt Q8I5G5 1-1187)
chain: MNYNEINDNTMMNTNDINHPSHLNNEKNDLSNEENYMNIYDNNNNIIIDNEVDDHLKEEYNNIGEGSPEGANNIISDNNKIHSIHNNNNNNNNNYNNNIVNNTFGMSINGNENVNNKDINNIHEEIHSNNVESFENLDDYKVNNIIHNVNNLINNEELLMNNINNNNHINEDLSSLNLNITQDNNVNNLINPNIGINNNKKVKNKNKNKLLKHMNNNVINETTNVSFENNKKNNINENFLAQNHNYYDNNMVNNMGYNYPTFNNNNNNNNNNMYNENMGFIPNNQFMHPQVYHPKLVAENKNKGKNKINPNIYINNYNMNNDNFNNKSSNLLYKNIKMNNIEQKKKKKMIHLKTDAAQISSVESTSEDMNYSNEYGSQKKHVEFKETNDPLILHPSTSYIRNIVIKKPSNIRNSIHNLNLYNVNSMTFDSYYTNKNGTNIINKNGANVINKNGTNIINKNGTNIINKNGTNIINKNESNTNDRNNNIILNTDQTNSEHNNMENIINNPSHRIYKPPVFISKYIKDMNEDELNDIYTLLNDQIIKSEENDKAINYVKNEIINLYKQNPIQLLTLQKCLSLIKANRNIIEVMFYILENNKLINMQCDPQYYNTYINNTSYLNYQTVNNIYKHCKNESSYGNHNNYNELMSNNMYNGTSDSYGNLINGDDTSMMGGHDGESTSSKLCSKKYNQISHINNNNNNNSNNNNNSNNNNNSNNNNNSNRNHNNNNNNNNNHNNNNNNNNNNNHNSCYGNIYNLHNDINILCDPLSNKLEWNNNEHIQTKESIRHNSKSPNYYNNYNYKCISCDKICENTYYILKPTNIKRISYGVVDKCIWCSVCYNSSNYPNVLNSSNFVKVNIPYNLSNNDWNINEIEKLIEGVCKFKNNWEQISEYIQTKTPYECIYKFISMPLSNPYFDLNNLYDINNISLNSYEQNNTLLSLLSFICNNISPYVGAYAAKKIVDYILEKQKEENEKEKKEQIKENDNHHNGDDTNKMGHHNEEIIDHAYQKEEEKNNINEQNGENVNEINVNNNNNNSNNLNDDNINNNDHLTLPNENNNISNNNEIKNEGNMENNMEVNNVNNNNQINDNNSVPNNTNDSMKKKPSTYILKDDDMKIIHDTIIKSSKKRSRELANLEEHNLKKLLKELVLLNTRKVQLKLKQHEYLQKYFEYQNEFMVNKGKNENETK
binding [7]: binds

B3: bromodomain protein 1 (protein, UniProt Q8IJ72 1-488)
chain: T2 sequence
binding [6]: binds
binding [7]: binds
